Data on one sequence can be found in publication PMC10877727.

For at least one entry, the source does not settle the construct or the ends of the probe. The comparison behind a weaker result is the experiment's own reference, which may not be listed here. At least one verdict rests on a figure or table, not on a statement of the authors.

For this data set, the target named is TraN (Enterococcus faecalis plasmid pIP501) (UniProt Q7BVV5). The experiment in a line: MST. To be noted: Kd in low micromolar range, value only in Figure 4B; MST in PBS-T (pH and temperature not stated); 50 nM RED-tris-NTA labelled His-protein, dsDNA 0.781 nM to 12.8 uM; Monolith NT.115, 60% LED and MST power; recombinant protein; residues 1-122; protein details: N-terminal 7xHis (pQTEV).

As to “AGGGCGCACTTATACGCAGTAACTTCGTTACTTC (double strand) [random DNA 34-mer]”, the binding result is on record as “binds more weakly”.
